Here are results for one substance from PMC8942331.

These are yes or no findings as the source states them, for the method shown. Binding seen in cells or lysates may run through a third protein. A result given as binding can be weak or reduced; the word gives no strength.

The test addresses T1, Vitamin D receptor (human (endogenous in K1 cells)) (UniProt P11473).
T1 sequence: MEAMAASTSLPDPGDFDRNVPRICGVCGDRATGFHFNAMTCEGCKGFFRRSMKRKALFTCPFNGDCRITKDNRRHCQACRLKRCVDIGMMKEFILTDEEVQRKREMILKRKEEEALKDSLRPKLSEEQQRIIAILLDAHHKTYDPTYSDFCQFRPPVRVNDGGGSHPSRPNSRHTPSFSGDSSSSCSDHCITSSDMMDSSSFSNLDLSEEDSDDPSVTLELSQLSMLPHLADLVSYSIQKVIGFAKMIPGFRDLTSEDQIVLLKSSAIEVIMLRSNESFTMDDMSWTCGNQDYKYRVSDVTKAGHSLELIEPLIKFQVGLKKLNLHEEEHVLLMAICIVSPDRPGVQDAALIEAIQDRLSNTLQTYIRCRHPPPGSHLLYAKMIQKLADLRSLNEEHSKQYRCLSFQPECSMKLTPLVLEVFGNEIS
The test can be described thus: co-IP; membrane protein extracts of K1 cells (100 µg) incubated with 2 µg anti-VDR antibody or rabbit IgG overnight at 4°C, protein G plus/protein A agarose beads, washes with PBS, Western blot for VDR, E-cadherin and β-catenin.

Regarding “E-cadherin (human (endogenous in K1 cells))”, the binding entry is reported as “binds”.
